Reference: PubChem BioAssay AID624150 (Cancer Research UK Cambridge, 2012)

- Screen: 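Find chromatin regulators that change keratinocyte differentiation across several stimuli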 (primary screen)
- Cell system: primary human epidermal keratinocytes
- Reagents: siRNA pool against human genes, 1-2 µM siRNA in 20 µl nucleofection
- Time to read-out: 72 h after transfection plus 48 h differentiation (about 5 days)
- Treatment: five arms for 48 h: vehicle, AG1478 10 µM, BMP2/7 200 ng/ml, both together, or 10% serum
- Measurement: 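Transglutaminase 1 immunostaining divided by DNA staining in each well, background removed, then z-scored versus every test siRNA on that plate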
- Reading the numbers: z-score, vehicle: higher = more differentiation marker per cell
Shown is a random part of 331 deposited reagents. 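Each arm had three replicate z-scores, but only the first replicate is printed; higher values mean more differentiation marker per cell.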 Not all columns of the deposit are shown.

target gene | PubChem SID | z-score, vehicle
PHF2 | SID135635807 | -0.619
CBX6 | SID135635628 | 1.42
ATAD2B | SID135635612 | 0.169
ING3 | SID135635789 | 0.399
DOT1L | SID135635865 | 1.33
TDRKH | SID135635917 | -0.735
SMARCA4 | SID135635599 | -0.23
ARID4B | SID135635652 | -1.52
RERE | SID135635592 | 0.23
SETMAR | SID135635838 | -1.03
KAT5 | SID135635675 | -1.09
MBD1 | SID135635740 | 0.208
HDAC9 | SID135635684 | 0.637
GATAD2B | SID135635734 | -1.1
TCF20 | SID135635791 | -0.938
DNMT3B | SID135635661 | -0.382
TRIM33 | SID135635803 | -0.686
NCOA3 | SID135635670 | 1.56
RIOX2 | SID135635700 | -1.59
CSNK2B | SID135635725 | -0.0985
DNMT1 | SID135635660 | -0.312
MLLT6 | SID135635757 | 1.15
CARM1 | SID135635816 | -1.51
RAD54L | SID135635890 | -0.318
PLA2G4B | SID135635692 | -0.653
MPHOSPH8 | SID135635638 | 1.16
CBX3 | SID135635631 | -2.09
HDAC10 | SID135635680 | 0.283
MBD2 | SID135635739 | -0.786
XRCC1 | SID135635896 | -0.707
PRDM14 | SID135635850 | 3.16
PHF21B | SID135635778 | -0.295
ERCC6L | SID135635889 | 0.138
SETD7 | SID135635845 | 0.0378

A portion of the results above, as a working copy:
target gene | PubChem SID | z-score, vehicle
PHF2 | SID135635807 | -0.619
CBX6 | SID135635628 | 1.42
ATAD2B | SID135635612 | 0.169
ING3 | SID135635789 | 0.399
DOT1L | SID135635865 | 1.33
